Record: PubChem BioAssay AID1259308 (NCATS, 2017)

Purpose: 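Knock-downs that increase output of a recombinant reporter protein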 (primary screen)
Cells: human HEK293 embryonic kidney cells stably expressing firefly luciferase (HEK-CMV-Luc2-Hygro)
Reagent: single siRNA against human genes, 0.8 pmol siRNA per well
Duration: 72 h
Measurement: 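Luciferase light (ONE-Glo) measured on one replicate plate set and viability (CellTiter-Glo) on the other, scaled to a negative control siRNA, with robust z-scores and luciferase per cell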
Scale: total luciferase, z-score and total luciferase, % of control: higher = more reporter protein produced; luciferase per cell, z-score: higher = more reporter output per viable cell; viable cells, % of control: higher = more viable cells
Hit rule: 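An siRNA counts as active if its total luciferase robust z-score exceeds 3; genes with two or more such siRNAs out of three were retested with fresh siRNAs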
Meaning of the calls: active = raised luciferase; inactive = no rise
Shown is an unselected part of about 59,000 reagents tested. Of all reagents, about 1,510 (2.6%) got an active call. 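Calls use total luciferase alone and ignore viability, so some active siRNAs may act by altering cell number.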 Reagents against one gene are numbered here.

| Gene | reagent no. | total luciferase, z-score | total luciferase, % of control | luciferase per cell, z-score | viable cells, % of control | outcome |
| --- | --- | --- | --- | --- | --- | --- |
| AHNAK (AHNAK nucleoprotein) | 1 | 0.0757 | 83.4 | 0.751 | 76.5 | inactive |
| AHNAK (AHNAK nucleoprotein) | 2 | -1.28 | 56.5 | -1.37 | 90.6 | inactive |
| AHNAK (AHNAK nucleoprotein) | 3 | 1.07 | 103 | 1.02 | 88.3 | inactive |
| SMIM29 (small integral membrane protein 29) | 1 | -0.489 | 72.2 | -0.215 | 85.3 | inactive |
| SMIM29 (small integral membrane protein 29) | 2 | -1.35 | 54.9 | -0.598 | 71.9 | inactive |
| SMIM29 (small integral membrane protein 29) | 3 | 0.813 | 98 | 0.456 | 97.2 | inactive |
| LILRA6 (leukocyte immunoglobulin like receptor A6) | 1 | 1.92 | 120 | 1.5 | 90.6 | inactive |
| LILRA6 (leukocyte immunoglobulin like receptor A6) | 2 | -0.701 | 67.9 | -0.752 | 92.5 | inactive |
| LILRA6 (leukocyte immunoglobulin like receptor A6) | 3 | -0.88 | 64.4 | -1.66 | 111 | inactive |
| SOX18 (SRY-box transcription factor 18) | 1 | -0.124 | 79.4 | -0.562 | 103 | inactive |
| SOX18 (SRY-box transcription factor 18) | 2 | -0.399 | 74 | -1.23 | 114 | inactive |
| SOX18 (SRY-box transcription factor 18) | 3 | 2.35 | 129 | 1.73 | 91.1 | inactive |
| ANKRD12 (ankyrin repeat domain 12) | 1 | 0.191 | 85.7 | -0.511 | 110 | inactive |
| ANKRD12 (ankyrin repeat domain 12) | 2 | -0.66 | 68.8 | -0.358 | 84.4 | inactive |
| ANKRD12 (ankyrin repeat domain 12) | 3 | -1.13 | 59.3 | 0.133 | 64 | inactive |

The list goes on (2 carried over from the part before).
| Gene | reagent no. | total luciferase, z-score | total luciferase, % of control | luciferase per cell, z-score | viable cells, % of control | outcome |
| --- | --- | --- | --- | --- | --- | --- |
| ANKRD12 (ankyrin repeat domain 12) | 2 | -0.66 | 68.8 | -0.358 | 84.4 | inactive |
| ANKRD12 (ankyrin repeat domain 12) | 3 | -1.13 | 59.3 | 0.133 | 64 | inactive |
| ERAL1 (Era like 12S mitochondrial rRNA chaperone 1) | 1 | 0.125 | 84.4 | 0.61 | 80.3 | inactive |
| ERAL1 (Era like 12S mitochondrial rRNA chaperone 1) | 2 | 1.19 | 106 | 1.22 | 85.7 | inactive |
| ERAL1 (Era like 12S mitochondrial rRNA chaperone 1) | 3 | -1.81 | 45.8 | -1.5 | 75.9 | inactive |
| TTC23 (tetratricopeptide repeat domain 23) | 1 | 3.31 | 148 | 2.1 | 94.9 | active |
| TTC23 (tetratricopeptide repeat domain 23) | 2 | 0.642 | 94.7 | 0.138 | 102 | inactive |
| TTC23 (tetratricopeptide repeat domain 23) | 3 | -0.657 | 68.8 | -0.993 | 99.9 | inactive |
| ARMH1 (armadillo like helical domain containing 1) | 1 | -1.59 | 50.3 | -0.83 | 69.9 | inactive |
| ARMH1 (armadillo like helical domain containing 1) | 2 | 1.47 | 111 | 1.14 | 92 | inactive |
| ARMH1 (armadillo like helical domain containing 1) | 3 | 0.478 | 91.4 | 1.06 | 77.2 | inactive |
